Measurements reported in the supplement of paper PMC10032668.
± gives the standard deviation of the averaged measurements. The list shows a part of the results. The list holds hits alone, and they repeat only in part.

Chains of the proteins cited; added tags and fusions are not shown.
NDUFS6, O75380, UniProt O75380, whole entry: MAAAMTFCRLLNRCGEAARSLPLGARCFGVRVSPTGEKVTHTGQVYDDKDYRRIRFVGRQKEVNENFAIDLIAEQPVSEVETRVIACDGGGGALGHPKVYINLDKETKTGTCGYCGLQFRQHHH
NFRKB, Q6P4R8, UniProt Q6P4R8, whole entry: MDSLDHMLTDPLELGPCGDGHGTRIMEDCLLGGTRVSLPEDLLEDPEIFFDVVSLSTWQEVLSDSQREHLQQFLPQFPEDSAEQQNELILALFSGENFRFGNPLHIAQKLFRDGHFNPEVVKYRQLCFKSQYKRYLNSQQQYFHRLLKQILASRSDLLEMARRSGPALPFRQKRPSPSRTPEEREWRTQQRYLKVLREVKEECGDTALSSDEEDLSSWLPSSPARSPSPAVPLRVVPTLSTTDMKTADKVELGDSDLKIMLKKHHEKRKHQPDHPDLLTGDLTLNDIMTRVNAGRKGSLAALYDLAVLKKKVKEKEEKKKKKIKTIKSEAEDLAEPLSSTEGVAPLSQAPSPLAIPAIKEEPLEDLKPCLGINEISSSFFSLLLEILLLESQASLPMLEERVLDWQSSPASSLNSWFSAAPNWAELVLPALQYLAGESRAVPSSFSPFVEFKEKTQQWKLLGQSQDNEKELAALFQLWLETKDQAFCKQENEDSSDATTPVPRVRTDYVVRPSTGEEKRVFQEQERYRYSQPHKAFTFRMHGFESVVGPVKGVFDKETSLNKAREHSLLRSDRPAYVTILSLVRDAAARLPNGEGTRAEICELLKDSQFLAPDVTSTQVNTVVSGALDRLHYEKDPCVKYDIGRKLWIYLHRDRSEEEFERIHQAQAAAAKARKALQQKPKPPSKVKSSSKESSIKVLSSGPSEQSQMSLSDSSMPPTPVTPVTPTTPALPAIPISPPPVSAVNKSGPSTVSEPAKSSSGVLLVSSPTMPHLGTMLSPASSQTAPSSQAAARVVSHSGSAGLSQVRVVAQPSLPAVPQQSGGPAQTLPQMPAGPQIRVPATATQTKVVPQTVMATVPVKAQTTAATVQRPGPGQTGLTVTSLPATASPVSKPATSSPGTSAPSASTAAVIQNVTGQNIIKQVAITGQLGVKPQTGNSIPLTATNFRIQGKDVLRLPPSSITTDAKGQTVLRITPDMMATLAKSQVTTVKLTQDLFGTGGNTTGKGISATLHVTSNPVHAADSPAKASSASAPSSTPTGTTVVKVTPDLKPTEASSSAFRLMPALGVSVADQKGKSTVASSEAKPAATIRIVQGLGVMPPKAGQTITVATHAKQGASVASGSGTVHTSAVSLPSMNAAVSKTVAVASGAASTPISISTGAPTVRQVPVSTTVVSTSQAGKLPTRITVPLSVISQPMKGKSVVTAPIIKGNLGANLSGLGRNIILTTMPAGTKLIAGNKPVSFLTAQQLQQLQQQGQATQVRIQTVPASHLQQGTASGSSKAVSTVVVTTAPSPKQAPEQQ
NFYA, P23511, UniProt P23511, whole entry: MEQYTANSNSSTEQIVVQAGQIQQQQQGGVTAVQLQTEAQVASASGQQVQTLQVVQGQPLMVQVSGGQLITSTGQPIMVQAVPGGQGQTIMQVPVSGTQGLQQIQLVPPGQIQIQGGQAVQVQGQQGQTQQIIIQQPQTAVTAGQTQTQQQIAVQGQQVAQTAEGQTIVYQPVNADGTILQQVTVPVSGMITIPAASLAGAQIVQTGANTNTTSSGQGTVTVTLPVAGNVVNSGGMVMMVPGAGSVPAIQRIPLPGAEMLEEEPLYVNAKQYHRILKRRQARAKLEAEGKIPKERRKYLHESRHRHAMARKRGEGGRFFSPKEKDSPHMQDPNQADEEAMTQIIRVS
NUP153, P49790, UniProt P49790, whole entry: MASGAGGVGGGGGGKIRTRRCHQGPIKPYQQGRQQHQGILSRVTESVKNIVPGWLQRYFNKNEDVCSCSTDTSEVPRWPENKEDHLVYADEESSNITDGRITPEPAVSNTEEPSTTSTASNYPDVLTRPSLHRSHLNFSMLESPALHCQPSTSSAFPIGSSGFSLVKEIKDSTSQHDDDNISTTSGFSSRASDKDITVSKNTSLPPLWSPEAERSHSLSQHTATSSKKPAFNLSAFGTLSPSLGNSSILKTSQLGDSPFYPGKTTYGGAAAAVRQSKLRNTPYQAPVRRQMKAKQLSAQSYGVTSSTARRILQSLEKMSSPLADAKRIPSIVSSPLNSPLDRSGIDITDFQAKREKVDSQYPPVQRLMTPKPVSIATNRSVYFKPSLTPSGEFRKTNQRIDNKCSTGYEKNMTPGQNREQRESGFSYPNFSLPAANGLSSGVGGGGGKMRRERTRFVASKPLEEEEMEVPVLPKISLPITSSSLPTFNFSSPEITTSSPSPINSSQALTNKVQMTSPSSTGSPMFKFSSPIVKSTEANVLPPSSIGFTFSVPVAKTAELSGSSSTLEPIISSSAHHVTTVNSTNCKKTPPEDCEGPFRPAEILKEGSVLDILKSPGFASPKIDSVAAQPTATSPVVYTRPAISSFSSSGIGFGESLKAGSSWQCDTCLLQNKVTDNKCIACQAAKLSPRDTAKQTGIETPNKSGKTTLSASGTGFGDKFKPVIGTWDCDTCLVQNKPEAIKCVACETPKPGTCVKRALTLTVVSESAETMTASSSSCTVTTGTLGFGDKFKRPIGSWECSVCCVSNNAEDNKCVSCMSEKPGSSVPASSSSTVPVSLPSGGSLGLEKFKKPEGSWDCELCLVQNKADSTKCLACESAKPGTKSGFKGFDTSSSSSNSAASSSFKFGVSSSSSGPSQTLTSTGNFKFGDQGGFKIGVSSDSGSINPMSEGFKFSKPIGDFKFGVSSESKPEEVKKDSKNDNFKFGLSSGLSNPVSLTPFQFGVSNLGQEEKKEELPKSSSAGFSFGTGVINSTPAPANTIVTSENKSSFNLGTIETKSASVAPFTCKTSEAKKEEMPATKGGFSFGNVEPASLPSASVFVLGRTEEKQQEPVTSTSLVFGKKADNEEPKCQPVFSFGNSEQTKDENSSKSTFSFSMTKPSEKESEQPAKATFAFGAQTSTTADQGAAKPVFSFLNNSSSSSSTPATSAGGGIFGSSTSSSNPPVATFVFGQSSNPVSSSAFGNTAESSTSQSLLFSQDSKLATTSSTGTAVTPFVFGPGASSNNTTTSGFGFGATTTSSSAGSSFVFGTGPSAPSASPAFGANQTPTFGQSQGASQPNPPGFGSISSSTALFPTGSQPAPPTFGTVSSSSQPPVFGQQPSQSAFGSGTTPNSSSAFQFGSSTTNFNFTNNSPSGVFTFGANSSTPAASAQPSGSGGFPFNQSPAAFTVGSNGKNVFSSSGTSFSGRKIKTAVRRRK
PCBP2, Q15366, UniProt Q15366, whole entry: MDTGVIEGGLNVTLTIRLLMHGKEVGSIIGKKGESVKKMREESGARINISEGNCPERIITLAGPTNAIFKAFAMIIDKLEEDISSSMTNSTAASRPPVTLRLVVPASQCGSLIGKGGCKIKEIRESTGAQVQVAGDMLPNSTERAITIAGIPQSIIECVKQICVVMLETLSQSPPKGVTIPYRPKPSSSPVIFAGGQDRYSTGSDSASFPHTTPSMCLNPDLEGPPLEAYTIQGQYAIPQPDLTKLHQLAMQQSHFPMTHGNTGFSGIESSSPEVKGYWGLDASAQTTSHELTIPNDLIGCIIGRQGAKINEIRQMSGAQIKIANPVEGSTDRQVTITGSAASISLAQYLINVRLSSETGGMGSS
POM121C, A8CG34, UniProt A8CG34, whole entry: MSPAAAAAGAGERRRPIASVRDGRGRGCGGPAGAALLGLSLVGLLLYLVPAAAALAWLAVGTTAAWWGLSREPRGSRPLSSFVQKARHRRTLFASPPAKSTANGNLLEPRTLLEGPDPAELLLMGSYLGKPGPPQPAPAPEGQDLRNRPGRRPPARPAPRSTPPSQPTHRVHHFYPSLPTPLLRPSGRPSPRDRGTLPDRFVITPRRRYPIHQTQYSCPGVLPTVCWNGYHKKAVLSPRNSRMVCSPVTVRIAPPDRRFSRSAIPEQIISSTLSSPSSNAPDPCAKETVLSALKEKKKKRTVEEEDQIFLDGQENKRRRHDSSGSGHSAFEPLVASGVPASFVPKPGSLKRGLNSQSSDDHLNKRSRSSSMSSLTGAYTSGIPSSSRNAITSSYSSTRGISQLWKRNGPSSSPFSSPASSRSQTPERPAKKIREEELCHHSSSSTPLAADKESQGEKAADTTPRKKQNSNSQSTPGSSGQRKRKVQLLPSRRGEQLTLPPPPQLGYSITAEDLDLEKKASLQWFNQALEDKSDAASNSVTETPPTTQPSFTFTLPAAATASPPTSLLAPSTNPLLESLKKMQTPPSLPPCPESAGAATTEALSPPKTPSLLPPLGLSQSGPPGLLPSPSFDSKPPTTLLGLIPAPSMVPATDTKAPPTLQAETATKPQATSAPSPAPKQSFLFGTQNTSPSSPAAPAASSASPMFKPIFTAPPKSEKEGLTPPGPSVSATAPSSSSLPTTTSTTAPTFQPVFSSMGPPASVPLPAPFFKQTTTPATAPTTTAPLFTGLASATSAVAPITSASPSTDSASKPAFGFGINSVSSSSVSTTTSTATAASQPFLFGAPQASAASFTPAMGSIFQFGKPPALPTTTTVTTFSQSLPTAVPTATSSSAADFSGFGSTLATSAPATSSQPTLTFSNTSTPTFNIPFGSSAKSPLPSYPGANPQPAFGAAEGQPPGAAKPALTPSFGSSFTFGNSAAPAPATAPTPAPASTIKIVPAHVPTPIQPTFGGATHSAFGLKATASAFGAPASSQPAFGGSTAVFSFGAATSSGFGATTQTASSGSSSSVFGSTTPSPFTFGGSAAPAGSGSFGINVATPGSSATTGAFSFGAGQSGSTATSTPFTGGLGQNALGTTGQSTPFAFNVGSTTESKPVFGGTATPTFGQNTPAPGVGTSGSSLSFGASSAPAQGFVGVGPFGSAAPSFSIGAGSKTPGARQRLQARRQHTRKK
RBBP5, Q15291, UniProt Q15291, whole entry: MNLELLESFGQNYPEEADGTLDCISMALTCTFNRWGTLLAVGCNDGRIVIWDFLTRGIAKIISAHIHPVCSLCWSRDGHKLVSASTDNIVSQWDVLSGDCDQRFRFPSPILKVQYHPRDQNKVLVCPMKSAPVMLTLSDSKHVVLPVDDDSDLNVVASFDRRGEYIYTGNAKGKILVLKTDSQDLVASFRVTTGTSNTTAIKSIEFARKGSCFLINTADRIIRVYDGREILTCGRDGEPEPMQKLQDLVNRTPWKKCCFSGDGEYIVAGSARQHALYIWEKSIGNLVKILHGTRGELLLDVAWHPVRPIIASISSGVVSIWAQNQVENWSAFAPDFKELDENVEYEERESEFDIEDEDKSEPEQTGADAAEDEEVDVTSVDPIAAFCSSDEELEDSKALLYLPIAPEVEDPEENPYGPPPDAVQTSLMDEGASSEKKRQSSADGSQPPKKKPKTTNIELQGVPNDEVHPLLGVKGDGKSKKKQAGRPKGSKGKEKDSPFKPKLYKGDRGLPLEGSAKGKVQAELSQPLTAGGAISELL
SMARCA5, O60264, UniProt O60264, whole entry: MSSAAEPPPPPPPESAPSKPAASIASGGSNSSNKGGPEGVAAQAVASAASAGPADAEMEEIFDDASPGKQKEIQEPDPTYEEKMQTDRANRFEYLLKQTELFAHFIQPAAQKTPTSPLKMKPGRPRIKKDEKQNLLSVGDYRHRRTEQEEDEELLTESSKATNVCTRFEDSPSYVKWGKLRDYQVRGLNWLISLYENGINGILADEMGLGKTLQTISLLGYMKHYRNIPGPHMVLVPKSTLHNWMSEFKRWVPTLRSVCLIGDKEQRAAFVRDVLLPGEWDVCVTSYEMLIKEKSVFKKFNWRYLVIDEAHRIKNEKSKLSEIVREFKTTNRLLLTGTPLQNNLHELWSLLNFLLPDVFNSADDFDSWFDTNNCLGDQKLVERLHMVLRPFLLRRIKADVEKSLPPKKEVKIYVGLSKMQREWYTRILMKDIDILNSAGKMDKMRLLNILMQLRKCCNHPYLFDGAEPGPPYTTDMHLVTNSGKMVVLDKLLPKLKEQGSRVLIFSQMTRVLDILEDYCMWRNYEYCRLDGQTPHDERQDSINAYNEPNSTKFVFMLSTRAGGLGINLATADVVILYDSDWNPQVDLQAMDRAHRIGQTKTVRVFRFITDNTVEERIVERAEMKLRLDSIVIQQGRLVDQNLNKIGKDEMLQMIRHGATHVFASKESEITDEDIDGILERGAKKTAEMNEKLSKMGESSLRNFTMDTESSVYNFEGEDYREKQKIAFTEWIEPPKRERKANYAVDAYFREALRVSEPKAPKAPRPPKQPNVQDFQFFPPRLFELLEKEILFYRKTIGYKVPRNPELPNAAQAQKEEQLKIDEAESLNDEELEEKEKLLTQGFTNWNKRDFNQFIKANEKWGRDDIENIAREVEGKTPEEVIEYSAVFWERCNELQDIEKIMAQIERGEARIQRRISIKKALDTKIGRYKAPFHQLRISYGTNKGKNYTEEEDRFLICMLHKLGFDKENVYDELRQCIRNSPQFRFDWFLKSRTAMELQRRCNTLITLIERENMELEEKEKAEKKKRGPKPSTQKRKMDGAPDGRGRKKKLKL

Columns and labels:
Assay in all cases: PRISMA enrichment of interactor (LFQ) in peptide spot vs all other peptide spots (log2 fold change); higher = stronger / more specific binding of the interactor to the peptide
[1] = biological target: LEO1, Q8WVC0
Method: (§1)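 PRISMA: 221 full-length sORF-encoded peptides (3-15 aa), plus SOS1/GLUT1 control peptides, were spot-synthesized on cellulose membranes in triplicate. Membranes were incubated with HEK293T lysate, and bound proteins were identified by LC-MS/MS with LFQ. Enrichment is the log2 fold change versus all other peptide spots; only significant interactors are listed (cutoff c=6, x0=2.8).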

[2] = biological target: LIN54, Q6MZP7
Method: as §1

[3] = biological target: LSM14A, Q8ND56
Method: as §1

[4] = biological target: MAP2K7, O14733
Method: as §1

[5] = biological target: MBNL1, Q9NR56
Method: as §1

[6] = biological target: MCRIP2, Q9BUT9
Method: as §1

[7] = biological target: MPP1, Q00013
Method: as §1

[8] = biological target: MTHFD1L, Q6UB35
Method: as §1

[9] = biological target: NAMPT, P43490
Method: as §1

[10] = biological target: NDUFS6, O75380
Method: as §1

[11] = biological target: NFRKB, Q6P4R8
Method: as §1

[12] = biological target: NFYA, P23511
Method: as §1

[13] = biological target: NOB1, Q9ULX3
Method: as §1

[14] = substrate: NOSIP, Q9Y314
Method: as §1

[15] = biological target: NTPCR, Q9BSD7
Method: as §1

[16] = biological target: NUFIP2, Q7Z417
Method: as §1

[17] = biological target: NUP153, P49790
Method: as §1

[18] = biological target: NUP50, Q9UKX7
Method: as §1

[19] = biological target: NUSAP1, Q9BXS6
Method: as §1

[20] = biological target: NXF1, Q9UBU9
Method: as §1

[21] = biological target: OGT, O15294
Method: as §1

[22] = biological target: PARK7, Q99497
Method: as §1

[23] = biological target: PBDC1, Q9BVG4
Method: as §1

[24] = biological target: PCBP2, Q15366
Method: as §1

[25] = biological target: PCLAF, Q15004
Method: as §1

[26] = substrate: PCNP, Q8WW12
Method: as §1

[27] = biological target: PDLIM1, O00151
Method: as §1

[28] = biological target: PICALM, Q13492
Method: as §1

[29] = biological target: PINX1, Q96BK5
Method: as §1

[30] = biological target: POGZ, Q7Z3K3
Method: as §1

[31] = biological target: POLDIP3, Q9BY77
Method: as §1

[32] = biological target: POM121C, A8CG34
Method: as §1

[33] = biological target: PPP1R10, Q96QC0
Method: as §1

[34] = biological target: PRRC2B, Q5JSZ5
Method: as §1

[35] = biological target: PRRC2C, Q9Y520
Method: as §1

[36] = biological target: PSRC1, Q6PGN9
Method: as §1

[37] = biological target: PUM1, Q14671
Method: as §1

[38] = biological target: QKI, Q96PU8
Method: as §1

[39] = biological target: QRICH1, Q2TAL8
Method: as §1

[40] = biological target: RACGAP1, Q9H0H5
Method: as §1

[41] = biological target: RBBP5, Q15291
Method: as §1

[42] = biological target: RBIS, Q8N0T1
Method: as §1

[43] = biological target: RBM14, Q96PK6
Method: as §1

[44] = biological target: RBM26, Q5T8P6
Method: as §1

[45] = biological target: RBM27, Q9P2N5
Method: as §1

[46] = biological target: RBM33, Q96EV2
Method: as §1

[47] = biological target: RBMS1, P29558
Method: as §1

[48] = biological target: RRM2, P31350
Method: as §1

[49] = biological target: SAP130, Q9H0E3
Method: as §1

[50] = biological target: SBDS, Q9Y3A5
Method: as §1

[51] = biological target: SCPEP1, Q9HB40
Method: as §1

[52] = biological target: SDF2L1, Q9HCN8
Method: as §1

[53] = biological target: SEPTIN11, Q9NVA2
Method: as §1

[54] = biological target: SEPTIN2, Q15019
Method: as §1

[55] = biological target: SEPTIN7, Q16181
Method: as §1

[56] = biological target: SEPTIN8, Q92599
Method: as §1

[57] = biological target: SEPTIN9, Q9UHD8
Method: as §1

[58] = biological target: SETD1A, O15047
Method: as §1

[59] = biological target: SIN3A, Q96ST3
Method: as §1

[60] = biological target: SMARCA5, O60264
Method: as §1

MAASSEIIIQVFVS [VPS8]
PRISMA enrichment of interactor (log2) [1]: 5.43
PRISMA enrichment of interactor (log2) [2]: 6.37
PRISMA enrichment of interactor (log2) [3]: 4.68
PRISMA enrichment of interactor (log2) [4]: 4.19
PRISMA enrichment of interactor (log2) [5]: 6.03
PRISMA enrichment of interactor (log2) [6]: 3.7
PRISMA enrichment of interactor (log2) [7]: 4.13
PRISMA enrichment of interactor (log2) [8]: 4.63
PRISMA enrichment of interactor (log2) [9]: 4.87
PRISMA enrichment of interactor (log2) [10]: 5.21
PRISMA enrichment of interactor (log2) [11]: 8.15
PRISMA enrichment of interactor (log2) [12]: 4.71
PRISMA enrichment of interactor (log2) [13]: 5.99
PRISMA enrichment of interactor (log2) [14]: 4.81
PRISMA enrichment of interactor (log2) [15]: 5.64
PRISMA enrichment of interactor (log2) [16]: 5.91
PRISMA enrichment of interactor (log2) [17]: 9.38
PRISMA enrichment of interactor (log2) [18]: 4.36
PRISMA enrichment of interactor (log2) [19]: 5.35
PRISMA enrichment of interactor (log2) [20]: 6.47
PRISMA enrichment of interactor (log2) [21]: 11
PRISMA enrichment of interactor (log2) [22]: 4.98
PRISMA enrichment of interactor (log2) [23]: 3.94
PRISMA enrichment of interactor (log2) [24]: 4.77 ± 1.1
PRISMA enrichment of interactor (log2) [25]: 4.23
PRISMA enrichment of interactor (log2) [26]: 6.04
PRISMA enrichment of interactor (log2) [27]: 4.35
PRISMA enrichment of interactor (log2) [28]: 7.65
PRISMA enrichment of interactor (log2) [29]: 6.8
PRISMA enrichment of interactor (log2) [30]: 6.1
PRISMA enrichment of interactor (log2) [31]: 7.57
PRISMA enrichment of interactor (log2) [32]: 4.65
PRISMA enrichment of interactor (log2) [33]: 8.16
PRISMA enrichment of interactor (log2) [34]: 6.82
PRISMA enrichment of interactor (log2) [35]: 6.81
PRISMA enrichment of interactor (log2) [36]: 4.9
PRISMA enrichment of interactor (log2) [37]: 4.7
PRISMA enrichment of interactor (log2) [38]: 4.33
PRISMA enrichment of interactor (log2) [39]: 8.21
PRISMA enrichment of interactor (log2) [40]: 6.26
PRISMA enrichment of interactor (log2) [41]: 5.29
PRISMA enrichment of interactor (log2) [42]: 4.82
PRISMA enrichment of interactor (log2) [43]: 6.51
PRISMA enrichment of interactor (log2) [44]: 4.25
PRISMA enrichment of interactor (log2) [45]: 6.31
PRISMA enrichment of interactor (log2) [46]: 6.75
PRISMA enrichment of interactor (log2) [47]: 4.51
PRISMA enrichment of interactor (log2) [48]: 4.05
PRISMA enrichment of interactor (log2) [49]: 3.73
PRISMA enrichment of interactor (log2) [50]: 4.68
PRISMA enrichment of interactor (log2) [51]: 5.31
PRISMA enrichment of interactor (log2) [52]: 6.57
PRISMA enrichment of interactor (log2) [53]: 7.93
PRISMA enrichment of interactor (log2) [54]: 7.39
PRISMA enrichment of interactor (log2) [55]: 7.25
PRISMA enrichment of interactor (log2) [56]: 5.73
PRISMA enrichment of interactor (log2) [57]: 9.4
PRISMA enrichment of interactor (log2) [58]: 7.5
PRISMA enrichment of interactor (log2) [59]: 7.08
PRISMA enrichment of interactor (log2) [60]: 4.65
